PubChem BioAssay AID1508597, Cure First, 2020
Here is a random part of about 2,100 reagents tested. 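Calls flag viability under 80% in either arm, not effects specific to rucaparib; the reference for percent is not stated.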 Reagent sequences are not shown. Not stated in the record: the 100% reference.

Test: 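Survival screen with siRNA in ovarian cancer cells derived from patients, with or without rucaparib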 (primary screen)
Cell system: human ovarian carcinoma lines grown from tumours: OCI-P5x (papillary serous) and OCI-C5x (clear cell)
Reagents: siRNA pool against human genes, 1.25 pmol siRNA per well
Time to read-out: 72 h or 96 h, depending on the cell culture
Treatment: rucaparib 20 µM (about IC30) or vehicle, present until read-out
Detection: 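ATP luminescence measured at 72 or 96 h according to the culture, then normalised and expressed as percent viability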
Reading the numbers: viability, normalised: higher = more viable cells remaining
Call rule: 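a well counts as a hit if its normalised viability is under 80 percent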
Meaning of the calls: active = viability under 80%; inactive = viability 80% or more

Target gene | rucaparib or vehicle | cell line | technical replicate | viability, normalised (%) | activity call
APPL1 | Rucaparib | OCI-C5x (clear cell) | 1 | 78.8 | active
APPL1 | Rucaparib | OCI-C5x (clear cell) | 2 | 42.1 | active
APPL1 | Rucaparib | OCI-C5x (clear cell) | 3 | 41.4 | active
APPL1 | Rucaparib | OCI-P5x (serous) | 1 | 81.5 | inactive
APPL1 | Rucaparib | OCI-P5x (serous) | 2 | 70 | active
APPL1 | Rucaparib | OCI-P5x (serous) | 3 | 81.9 | inactive
APPL1 | Vehicle | OCI-C5x (clear cell) | 1 | 59.4 | active
APPL1 | Vehicle | OCI-C5x (clear cell) | 2 | 48.5 | active
APPL1 | Vehicle | OCI-C5x (clear cell) | 3 | 54.8 | active
APPL1 | Vehicle | OCI-P5x (serous) | 1 | 67.7 | active
APPL1 | Vehicle | OCI-P5x (serous) | 2 | 63.7 | active
APPL1 | Vehicle | OCI-P5x (serous) | 3 | 76.7 | active
CBX2 (chromobox 2) | Rucaparib | OCI-C5x (clear cell) | 1 | 42.9 | active
CBX2 (chromobox 2) | Rucaparib | OCI-C5x (clear cell) | 2 | 55.6 | active
CBX2 (chromobox 2) | Rucaparib | OCI-C5x (clear cell) | 3 | 39.4 | active
CBX2 (chromobox 2) | Rucaparib | OCI-P5x (serous) | 1 | 63.6 | active
CBX2 (chromobox 2) | Rucaparib | OCI-P5x (serous) | 2 | 91.2 | inactive
CBX2 (chromobox 2) | Rucaparib | OCI-P5x (serous) | 3 | 79.2 | active
CBX2 (chromobox 2) | Vehicle | OCI-C5x (clear cell) | 1 | 38.8 | active
CBX2 (chromobox 2) | Vehicle | OCI-C5x (clear cell) | 2 | 48.9 | active
CBX2 (chromobox 2) | Vehicle | OCI-C5x (clear cell) | 3 | 45.6 | active
CBX2 (chromobox 2) | Vehicle | OCI-P5x (serous) | 1 | 68.1 | active
CBX2 (chromobox 2) | Vehicle | OCI-P5x (serous) | 2 | 77.4 | active
CBX2 (chromobox 2) | Vehicle | OCI-P5x (serous) | 3 | 80 | inactive
PLCH2 (phospholipase C eta 2) | Rucaparib | OCI-C5x (clear cell) | 1 | 70.8 | active
PLCH2 (phospholipase C eta 2) | Rucaparib | OCI-C5x (clear cell) | 2 | 64.3 | active
PLCH2 (phospholipase C eta 2) | Rucaparib | OCI-C5x (clear cell) | 3 | 52.5 | active
PLCH2 (phospholipase C eta 2) | Rucaparib | OCI-P5x (serous) | 1 | 69.1 | active
PLCH2 (phospholipase C eta 2) | Rucaparib | OCI-P5x (serous) | 2 | 59.2 | active
PLCH2 (phospholipase C eta 2) | Rucaparib | OCI-P5x (serous) | 3 | 71.5 | active
PLCH2 (phospholipase C eta 2) | Vehicle | OCI-C5x (clear cell) | 1 | 32.2 | active
PLCH2 (phospholipase C eta 2) | Vehicle | OCI-C5x (clear cell) | 2 | 45.8 | active
PLCH2 (phospholipase C eta 2) | Vehicle | OCI-C5x (clear cell) | 3 | 50.8 | active
PLCH2 (phospholipase C eta 2) | Vehicle | OCI-P5x (serous) | 1 | 63.4 | active
PLCH2 (phospholipase C eta 2) | Vehicle | OCI-P5x (serous) | 2 | 81.6 | inactive
PLCH2 (phospholipase C eta 2) | Vehicle | OCI-P5x (serous) | 3 | 80.5 | inactive
STC1 (stanniocalcin 1) | Rucaparib | OCI-C5x (clear cell) | 1 | 55 | active
STC1 (stanniocalcin 1) | Rucaparib | OCI-C5x (clear cell) | 2 | 57.5 | active
STC1 (stanniocalcin 1) | Rucaparib | OCI-C5x (clear cell) | 3 | 70.3 | active
STC1 (stanniocalcin 1) | Rucaparib | OCI-P5x (serous) | 1 | 90 | inactive
STC1 (stanniocalcin 1) | Rucaparib | OCI-P5x (serous) | 2 | 96.9 | inactive
STC1 (stanniocalcin 1) | Rucaparib | OCI-P5x (serous) | 3 | 77.1 | active
STC1 (stanniocalcin 1) | Vehicle | OCI-C5x (clear cell) | 1 | 56.5 | active
STC1 (stanniocalcin 1) | Vehicle | OCI-C5x (clear cell) | 2 | 71.4 | active
STC1 (stanniocalcin 1) | Vehicle | OCI-C5x (clear cell) | 3 | 69.7 | active
STC1 (stanniocalcin 1) | Vehicle | OCI-P5x (serous) | 1 | 96.6 | inactive
STC1 (stanniocalcin 1) | Vehicle | OCI-P5x (serous) | 2 | 111 | inactive
STC1 (stanniocalcin 1) | Vehicle | OCI-P5x (serous) | 3 | 95.7 | inactive
MORC3 (MORC family CW-type zinc finger 3) | Rucaparib | OCI-C5x (clear cell) | 1 | 41.1 | active
MORC3 (MORC family CW-type zinc finger 3) | Rucaparib | OCI-C5x (clear cell) | 2 | 47.5 | active
MORC3 (MORC family CW-type zinc finger 3) | Rucaparib | OCI-C5x (clear cell) | 3 | 38.4 | active
MORC3 (MORC family CW-type zinc finger 3) | Rucaparib | OCI-P5x (serous) | 1 | 53.9 | active
MORC3 (MORC family CW-type zinc finger 3) | Rucaparib | OCI-P5x (serous) | 2 | 57.9 | active
MORC3 (MORC family CW-type zinc finger 3) | Rucaparib | OCI-P5x (serous) | 3 | 61.8 | active
MORC3 (MORC family CW-type zinc finger 3) | Vehicle | OCI-C5x (clear cell) | 1 | 43.9 | active
MORC3 (MORC family CW-type zinc finger 3) | Vehicle | OCI-C5x (clear cell) | 2 | 49.5 | active
MORC3 (MORC family CW-type zinc finger 3) | Vehicle | OCI-C5x (clear cell) | 3 | 58.8 | active
MORC3 (MORC family CW-type zinc finger 3) | Vehicle | OCI-P5x (serous) | 1 | 66.3 | active
MORC3 (MORC family CW-type zinc finger 3) | Vehicle | OCI-P5x (serous) | 2 | 75.3 | active
MORC3 (MORC family CW-type zinc finger 3) | Vehicle | OCI-P5x (serous) | 3 | 69.1 | active
